This passage reports host macrophage viability results from the supplement of paper PMC12578635.

± gives the standard deviation of the averaged measurements. The list shows a part of the results. Most values come without repeats; read them as rough.

The subject of this test is RAW 264.7 macrophages infected with S. aureus JE2-lux. The test can be described thus: host macrophage viability (CellTiter-Fluor) relative to DMSO vehicle; higher = more viable host cells. The settings on record: 10 µM; treatment time 4 h; gentamicin 50 µg/ml.
With `COc1ccccc1N1CCN(c2nccn3nc(-c4ccc(C)c(C)c4)cc23)CC1`, the host macrophage viability is 94.5%.
The value for `CCOCCOC(=O)c1ccc2c(c1)N(Cc1ccncc1)C(=O)c1ccccc1S2` was 117%; that for `COC(=O)CSC1=C(C#N)C(c2ccccc2)C(C(=O)Nc2ccccc2OC)=C(C)N1` (centres undefined) was 135%; that for `O=C1CCc2cc(S(=O)(=O)Nc3ccccc3N3CCOCC3)ccc2N1` was 110%.
With `Cc1ccc(-c2cnnc(-n3nc(C)c4c3NC(=O)CC4c3ccc(C)c(C)c3)n2)cc1` (centres undefined), the host macrophage viability stood at 106%.
Under `Cc1ccc(Cn2c(Sc3nnc(C)s3)nc3c2c(=O)[nH]c(=O)n3C)cc1` stands 111%; under `CCOc1ccccc1/C=N/NC(=O)CNC(=O)c1cccs1`, 124%; under `Cc1nc(-c2ccccc2)c(CC(=O)NC(c2ccccc2)c2cccnc2)s1` (centres undefined), 116%.
Under `Cc1cc(=O)n2nc(CN(c3ccc(Cl)cc3)S(=O)(=O)c3ccccc3)nc2[nH]1` stands 105%; under `COC(=O)COc1cccc2c(=O)n(CC(=O)Nc3ccc([N+](=O)[O-])cc3)ccc12`, 116%; under `O=C(Nc1c(C(=O)Nc2ccccc2F)oc2ccccc12)c1ccc(Br)o1`, 115 ± 2.4%.
The value for `CCOc1ccc2ccccc2c1C(=O)Nn1cnc2c(cnn2-c2ccccc2)c1=O` was 118%; that for `COC(=O)c1ccccc1NC(=O)CSc1nnc(CSc2nc(C)cc(C)n2)o1` was 113%; that for `Cc1cc(C)c2c(n1)sc1c(=O)n(-c3cccc(C(=O)Nc4ccc(C(C)C)cc4)c3)cnc12` was 139%.
For the compound `Clc1ccccc1CCNc1ncnc2oc3c(c12)CCCC3`, the host macrophage viability came out at 125%.
On to `CCNc1nc(NCC)n2c(SCC(=O)Nc3ccc([N+](=O)[O-])cc3)nnc2n1`, for which the host macrophage viability turned out to be 121%.
The value for `COc1ccc(C2C(C#N)=C(SC)NC3=C2C(=O)CC(C)(C)C3)cc1` (centres undefined) was 119%; that for `CCN1CCN(c2nc3ncn(CC(=O)N4CCN(c5ccc(F)cc5)CC4)c(=O)c3s2)CC1` was 113%.
Under `O=C(Cn1c(=O)n2nc(-c3ccc(F)cc3)nc2c2ccccc21)N1CCN(c2ccc(F)cc2)CC1` stands 119%; under `COC(=O)c1ccc(NC(=O)CSc2nc(-c3ccccc3C)ns2)cc1`, 113 ± 12%; under `Cc1ccnc(SCc2cc(=O)c(OC(=O)c3c(F)cccc3Cl)co2)n1`, 103%.
For the compound `Cc1cc(OCC(=O)Nc2ccc3c(c2)nc2n3CCN(C(C)C)C2)ccc1Cl`, the host macrophage viability stood at 116%.
Under `Cc1sc(NC(=O)C2(C)CCCO2)nc1-c1cc2ccccc2oc1=O` (centres undefined) stands 107%; under `Cc1ccc(NC(=O)Cn2cnc3c(cnn3-c3ccc(F)cc3)c2=O)c(C)c1`, 112 ± 23%; under `C=CCn1c(NCCO)nc2sc3c(c2c1=O)CCC3`, 108 ± 9.3%.
The value for `O=C1NC(=S)N/C1=C\c1cc([N+](=O)[O-])ccc1OCc1ccccc1Cl` was 79.6%.
Under `O=C(NCc1ccccc1Cl)C1CCCN(c2nccnc2Oc2ccccc2)C1` (centres undefined) stands 103%.
As for `O=C(CCn1cnc2onc(-c3cc(F)cc(F)c3)c2c1=O)NCc1cccc(F)c1`, the host macrophage viability is 106%.
Under `COc1ccc(C(=O)C2CCN(C(=O)Nc3ccccc3F)CC2)cc1` stands 102%; under `O=C(Cn1cc(S(=O)(=O)c2ccccc2)c(=O)c2cc(F)ccc21)Nc1cccc(Cl)c1`, 115%; under `CCc1cc(=O)n2ncc(C(=O)Nc3cc(Cl)ccc3C)c2[nH]1`, 115%.
The value for `CC(C)(C)NC(=O)CCn1c(-c2cccnc2)cc2cccnc21` was 91.5%; that for `COc1ccccc1/N=c1\oc2ccc(Br)cc2cc1C(=O)NC(C)=O` was 104%.
`COCCn1/c(=N/C(=O)c2ccno2)sc2cc(S(C)(=O)=O)ccc21`: the host macrophage viability is 110%.
On to `CC(=O)c1ccc(Nc2nc(C)nc3c2c(C)c(C)n3-c2ccc(F)cc2)cc1`, for which the host macrophage viability was 90.4%.
Under `Cc1nc2c(ccc3nc(NC(=O)c4cc(-c5cccs5)nc5ccccc45)sc32)s1` stands 127 ± 3.3%; under `O=C(CSc1nc2c(cnn2-c2ccc(F)cc2)c(=O)[nH]1)N1CCOCC1`, 101%.
Under `CCOc1ccc(C(=O)NC2CC3CCCC(C2)N3C(=O)Nc2ccc(F)cc2)cc1` (centres undefined) stands 119%; under `COc1ccc(-c2nnc3ccc(SCC(=O)Nc4c(C)cc(C)cc4C)nn23)cc1`, 101 ± 9%; under `O=C(Nc1nc2ccc3ccccc3c2s1)c1c(F)cccc1F`, 122%.
`CCOC(=O)c1ccc(CC2SC(=N)NC2=O)cc1` (centres undefined): the host macrophage viability is 117%.
Under `COc1ccc(C(NC(=O)c2cccc3c(C)c(C)[nH]c23)c2ccncc2)cc1` (centres undefined) stands 146%; under `Oc1nc(SCc2c(F)cccc2Cl)nc2[nH]cnc12`, 105%; under `COC(=O)c1sc2nc(N)c(C#N)c(-c3ccco3)c2c1N`, 120%.
On to `Cc1cccc(-c2nc(N)n(C(=O)Cc3ccc(Cl)cc3)n2)c1`, for which the host macrophage viability stood at 111%.
The value for `COc1cccc(-c2csc(/C(C#N)=C/Nc3cc(Cl)ccc3OC)n2)c1` was 118 ± 3.1%.
The value for `CCCCC(=O)N1CCN(c2nc3ccccc3cc2-c2noc(C)n2)CC1` was 107%.
The value for `CC(=O)Nc1ccc(S(=O)(=O)N2CCN=C2SCc2ccc([N+](=O)[O-])cc2)cc1` was 122%; that for `COc1ccc(-n2nnc3c(SCC(=O)NCC4CCCO4)ncnc32)cc1` (centres undefined) was 95.2 ± 4.9%; that for `O=C(CCN1C(=O)c2cccc3cccc(c23)C1=O)NC1CCS(=O)(=O)C1` (centres undefined) was 99.3%.
For `COc1ccccc1C(=O)n1nc(-c2ccccc2Cl)nc1N`, the host macrophage viability worked out at 119%.
On to `Cc1sc2nc(SC/C=C/c3ccccc3)[nH]c(=O)c2c1C`, for which the host macrophage viability came out at 116%.
Under `Cc1cc(Nc2ccc(C)c(F)c2)n2nc(Cc3cccc(F)c3)nc2n1` stands 122%; under `COc1cccc(-n2c(C)c(C)c3c2ncn2nc(-c4ccccc4Br)nc32)c1`, 120%.
Under `Cc1ccc(-c2cnc3c(-c4ccc(Cl)cc4)cnn3c2N)cc1` stands 120%; under `CC12CC(NC(=O)N1Cc1ccccc1)c1ccccc1O2` (centres undefined), 106%.
The value for `CCn1c(=O)[nH]c(=O)c2cnc(-c3ccc(OC)cc3)nc21` was 130%; that for `COc1cc(NC(=O)CSC2=NS(=O)(=O)c3ccccc3N2)cc(OC)c1` was 104%.
In the case of `O=C(NNc1nc2c(Cl)cccc2s1)C1COc2ccccc2O1` (centres undefined), the host macrophage viability is 120 ± 8%.
The value for `Cn1c(=O)c2c(SCC(=O)NCc3ccco3)ccnc2n(C)c1=O` was 120%.
Under `COc1cc2c(cc1OC)C(COc1ccc([N+](=O)[O-])cc1)N(C(=S)NC(C)(C)C)CC2` (centres undefined) stands 114%.
Under `CCN(CCNC(=O)c1ccc2nc(N3CCN(c4ncccn4)CC3)ccc2n1)c1cccc(C)c1` stands 113%; under `O=C(NC1CC1)c1ccc(S(=O)(=O)N2CCC(NC(=O)c3cccc(F)c3)CC2)cc1`, 119%; under `CC(C)c1cc(C(=O)NC(c2ccncc2)c2ccc(Cl)cc2)n(C)n1` (centres undefined), 104%.
